Laboratory results as given in publication PMC8997993.
These are yes or no findings as the source states them, for the method shown. In cells and extracts the contact can be indirect. Sequences can lack the tags named with a protein.

Target: T1, CIB5-cYFP-3× Myc (A. thaliana) (UniProt Q9C670)
T1 sequence: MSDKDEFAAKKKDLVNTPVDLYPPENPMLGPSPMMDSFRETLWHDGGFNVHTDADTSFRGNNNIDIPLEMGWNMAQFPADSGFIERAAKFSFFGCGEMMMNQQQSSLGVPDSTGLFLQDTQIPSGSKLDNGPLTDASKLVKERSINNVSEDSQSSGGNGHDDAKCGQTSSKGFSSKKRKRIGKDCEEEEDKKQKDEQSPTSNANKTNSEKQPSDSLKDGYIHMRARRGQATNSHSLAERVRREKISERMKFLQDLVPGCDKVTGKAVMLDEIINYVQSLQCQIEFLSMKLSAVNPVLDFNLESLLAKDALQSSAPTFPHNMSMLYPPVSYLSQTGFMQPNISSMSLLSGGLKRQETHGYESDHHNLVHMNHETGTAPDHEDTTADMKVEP
Test: co-IP; BiFC plasmids co-transformed into A. thaliana protoplasts, 22 °C 12-16 h in the dark; total protein on anti-c-Myc affinity gel 4 h at 4 °C; washed with TTBS (17 mM Tris, 130 mM NaCl, pH 7.5, 1% Triton-X100); blots with anti-FLAG and anti-c-Myc

binding: no binding
B1: PRE1-nYFP-3×FLAG (protein, UniProt Q9FLE9 1-92)
chain: MSNRRSRQSSSAPRISDNQMIDLVSKLRQILPEIGQRRRSDKASASKVLQETCNYIRNLNREVDNLSERLSQLLESVDEDSPEAAVIRSLLM
